Source: PubChem BioAssay AID2685 (National Center for Advancing Translational Sciences (NCATS), 2010)
Some of the results follow. These are further read-outs of the screen, such as a control signal, another cell line or another target. No call is given for them. Compounds called inactive in the main read-out are mostly missing here. The note in brackets gives the kind of curve behind each potency; many fits are weak.

Test: qHTS Assay for Lipid Storage Modulators in Drosophila S3 Cells;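 as to cell number change: cells counted by Cell Tracker Red CMTPX staining in the red channel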
Conditions: BODIPY lipid droplet fluorescence, 18-24 h; for cell number change: measured here: cell count max response, cells fed with added oleic acid
Method in brief: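 Drosophila S3 cells loaded with oleic acid (400 uM, as added) and compounds at several concentrations; lipid droplets imaged by 488-nm laser-scanning cytometry, 500–530 nm intensity and object ratio to cell channel. Percent activity normalized to 20 uM Triacsin C.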

[1] = measured here: lipid fluorescence (Fed channel) AC50, cells fed with added oleic acid
[2] = measured here: cell number channel AC50, cells fed with added oleic acid

| Structure (SMILES) | cell number change | AC50 [1] | AC50 [2] |
| --- | --- | --- | --- |
| CCc1c(C(=O)NCc2ccccc2Cl)[nH]c(C)c1C(C)=O | -9.62% |  |  |
| O=C(CC1C(=O)NCCN1Cc1ccccc1C(F)(F)F)NCCN1CCOCC1 (stereo not given) | 11.6% | 3.66 µM [rising, full curve, poor fit] |  |
| CC(C)c1ccc(NC2CCCN(C(=O)c3cccnc3)C2)cc1 (stereo not given) | 38.7% | 16.4 µM [rising, partial curve] | 11.6 µM [rising, partial curve] |
| O=C(NC1CCCCC1)c1cccs1 | 12.8% | 29.1 µM [rising, single point] |  |
| CC(C)NC(=O)CSc1nnc2sc3ccccc3n12 |  | 0.651 µM [falling, single point] | 0.651 µM [falling, single point] |
| O=C(c1cccs1)N1CCc2ccccc21 | 74.3% |  |  |
| CC(C)CNC(CC(=O)Nc1cccc([N+](=O)[O-])c1)C(=O)O (stereo not given) | 15% | 1.3 µM [rising, partial curve] | 6.51 µM [falling, single point] |
| Cc1ccc(S(=O)(=O)C(C#N)c2nc3ccccc3nc2N2CCN(C)CC2)cc1C (stereo not given) | -15.2% | 20.6 µM [falling, partial curve] |  |
| Cc1ccc(C)c(CN2C(=O)COc3ccc(C(=O)c4ccccc4C(=O)O)cc32)c1 | 17.1% | 0.651 µM [falling, single point] |  |
| C=CCc1ccccc1OCC(O)CNC1CCCC1 (stereo not given) | -11.5% | 6.51 µM [rising, partial curve] |  |
| O=c1c(Cl)nc2cc(Cl)ccc2n1CCNc1ncc(C(F)(F)F)cc1Cl | -0.197% | 0.82 µM [falling, partial curve] |  |
| CC(C)(C)OC(=O)NC1CC2CCCC(C1)N2Cc1ccccc1 (stereo not given) | 2.91% | 25.9 µM [rising, single point] |  |
| CC1CCCCC1NC(=O)COC(=O)C12CC3CC(CC(Cl)(C3)C1)C2 (stereo not given) | -9.29% |  |  |
| CC1(C)Cc2ccccc2-c2nc(NCCCO)n(-c3ccccc3)c(=O)c21 | 4.76% | 9.2 µM [rising, partial curve, poor fit] |  |
| COc1ccc(N(/N=C2\Sc3ccccc3C2=O)C(C)=O)cc1 |  | 0.103 µM [rising, full curve, poor fit] | 0.116 µM [rising, full curve, poor fit] |
| C[C@H]1CN=C(N(C)C)N1CCCCc1ccccc1 | 18.5% | 29.1 µM [rising, single point] |  |
| CC(=O)N1C(c2ccccc2O)C[C@]2(C)CC(=O)NC12 (stereo not given in full) | -3.38% | 32.6 µM [falling, single point] |  |
| CC(=O)Nc1ccc(Nc2nc(-c3sc(NC(C)=O)nc3C)cs2)cc1 |  | 16.4 µM [falling, single point] |  |
| O=C(Nc1ccc(O)cc1C(=O)O)c1ccc2c(c1)C(=O)N(Cc1ccco1)C2=O |  | 4.61 µM [falling, single point] | 0.116 µM [falling, full curve, poor fit] |
| CC(C)(C)c1cc2cccnc2n1Cc1cccc(F)c1 | 11.5% |  | 2.59 µM [rising, partial curve, poor fit] |

| Structure (SMILES) | cell number change | AC50 [1] | AC50 [2] |
| --- | --- | --- | --- |
| COc1cc(C(=O)OCc2csc(CC(=O)Nc3ccccc3C)n2)ccc1OCC(C)C | -36.9% | 5.8 µM [falling, partial curve, poor fit] | 4.11 µM [falling, partial curve, poor fit] |
| O=[N+]([O-])c1cccc(OCC(O)CN2CCN(S(=O)(=O)c3cc(Cl)ccc3Cl)CC2)c1 (stereo not given) |  | 29.1 µM [falling, single point] |  |
| CCC(OC(=O)C1=Cc2ccccc2OC1)C(=O)NCc1ccco1 (stereo not given) | 5.4% | 0.146 µM [falling, full curve, poor fit] |  |
| CC1(C)CC(=O)C=C(Nc2ccccc2O)C1 | -10.7% |  | 2.59 µM [rising, single point] |
| Cc1csc(NC(=O)C2CCCCN2S(=O)(=O)c2ccccc2)n1 (stereo not given) |  | 0.116 µM [rising, single point] | 0.116 µM [rising, single point] |
| Cc1nn(C)cc1/C=N/NC(=O)C1(O)c2ccccc2-c2ccccc21 |  | 4.11 µM [rising, single point] | 6.51 µM [rising, single point] |
| COc1ccc(Cl)cc1NC(=O)c1nnn(CC(=O)Nc2cc(C)cc(C)c2)c1N | 64.5% | 29.1 µM [rising, single point] | 29.1 µM [rising, single point] |
| CCOC(=O)C1=C(COC(=O)/C=C/c2ccccc2)NC(=O)NC1C (stereo not given) |  | 0.116 µM [rising, full curve, poor fit] |  |
| CCOC(=O)c1cc2c(=O)n3ccccc3nc2n(C(C)C)c1=NC(=O)c1ccncc1 | -17.3% |  |  |
| CCC(C)Sc1nc2c([nH]c3ccccc32)c(=O)n1C (stereo not given) |  | 0.517 µM [rising, full curve] |  |
| COc1ccc(N=c2ssnc2Cl)cc1 | -78% | 20.6 µM [falling, partial curve] | 20.6 µM [falling, partial curve] |
| Cn1c(SCC(=O)OCc2ccccc2)nnc1-c1ccco1 | -14.4% |  |  |
| COc1ccc2[nH]c(C(=O)N3CCCN(Cc4ccc(F)cc4)CC3)cc2c1 | 17.3% | 3.66 µM [rising, partial curve] |  |
| O=C(CN1C(=O)c2ccccc2S1(=O)=O)NCc1cccs1 | 19.6% | 0.58 µM [falling, full curve, poor fit] |  |
| CC(C)NC(=O)CSCc1ccccc1Cl | -17.7% | 11.6 µM [falling, partial curve] |  |
| Cc1ccc(-n2nc(C(=O)O)nc2-c2ccccc2)cc1 | 7.61% |  |  |
| Cc1ccc(NCC(=O)N=Nc2c(O)[nH]c3ccc([N+](=O)[O-])cc23)cc1 | -30.7% | 20.6 µM [falling, single point] | 16.4 µM [falling, single point] |
| COc1ccc(NC(=O)COC(=O)c2ccco2)c([N+](=O)[O-])c1 | 0.244% |  |  |
| CN1C(=O)c2ccccc2C(C(=O)NCC2CCCO2)C1c1c[nH]c2ccccc12 (stereo not given) | -2.61% | 3.66 µM [falling, partial curve] |  |
| CC1CCCCC1NC(=O)NC(=O)COC(=O)C1=NN(c2ccccc2)C(=O)CC1 (stereo not given) | -9.29% | 18.4 µM [rising, single point] |  |

An excerpt from above in order of SMILES length, falling:

| Structure (SMILES) | cell number change | AC50 [1] | AC50 [2] |
| --- | --- | --- | --- |
| COc1ccc(Cl)cc1NC(=O)c1nnn(CC(=O)Nc2cc(C)cc(C)c2)c1N | 64.5% | 29.1 µM [rising, single point] | 29.1 µM [rising, single point] |
| COc1ccc(NC(=O)COC(=O)c2ccco2)c([N+](=O)[O-])c1 | 0.244% |  |  |
| O=C(CN1C(=O)c2ccccc2S1(=O)=O)NCc1cccs1 | 19.6% | 0.58 µM [falling, full curve, poor fit] |  |

(list continues)

| Structure (SMILES) | cell number change | AC50 [1] | AC50 [2] |
| --- | --- | --- | --- |
| Cc1[nH]c2ccc(C(=O)OC(C)C(=O)NCc3ccccc3)cc2c1C (stereo not given) | -0.668% | 29.1 µM [falling, single point] |  |
| COC(=O)c1cccc(-n2sc3ccccc3c2=O)c1 | -83.6% | 4.61 µM [falling, single point] | 4.61 µM [falling, full curve] |
| CCC(c1nnc(SCC(=O)Nc2ccc(S(N)(=O)=O)cc2)n1Cc1ccccc1)N(C)C (stereo not given) | -11.3% | 18.4 µM [falling, single point] |  |
| O=c1c(-c2ccc([N+](=O)[O-])cc2)coc2c(O)c(O)ccc12 | -12.2% | 0.82 µM [falling, partial curve] |  |
| COc1cc(CCC(=O)OCC(=O)Nc2ccc(F)c(F)c2F)cc(OC)c1OC | 8.33% |  | 0.461 µM [rising, full curve] |
| O=C(NCc1ccccn1)C1CC(c2ccc(F)cc2)=NO1 (stereo not given) | -1.06% |  |  |
| O=C(CN1CCN(Cc2ccc3c(c2)OCO3)CC1)Nc1ccc2c(c1)OCCO2 | 9.6% | 6.51 µM [rising, partial curve] |  |
| O=C(NCc1ccccc1)C1CCCN(C(=O)NCc2ccccc2)C1 (stereo not given) | 9.66% | 3.26 µM [rising, full curve] |  |
| Cc1csc(=O)n1CC(=O)OCC(=O)Nc1ccc(C(N)=O)cc1 | -11.4% |  |  |
| COc1ccc(S(=O)(=O)NCc2csc(C)n2)cc1OC | 13% |  |  |
| CC(=O)N1CCN(C23CC4CC(CC(C4)C2)C3)CC1 | 9.07% | 7.31 µM [rising, partial curve, poor fit] |  |
| Cc1cc2oc(=O)c(CC(=O)NCCCN(C)C)c(C)c2c2occ(C(C)(C)C)c12 | -53.7% | 29.1 µM [falling, single point] | 25.9 µM [falling, single point] |
| Cc1ccc(CN2CCS(=O)(=O)CC2)o1 | -48.5% | 0.651 µM [rising, single point] |  |
| CCOC(=O)CNC(=O)c1ccc2[nH]c3c(c2c1)CCCC3 | 14.6% | 0.651 µM [rising, partial curve] | 0.0461 µM [rising, full curve, poor fit] |
| O=C(CCC(=O)c1ccc(F)cc1)OCc1nnc(-c2ccc([N+](=O)[O-])cc2)o1 | -3.58% | 16.4 µM [falling, partial curve, poor fit] |  |
| O=C(c1ccc(Cl)cc1)C(CN1CCCC1)c1ccccc1 (stereo not given) | -50.1% | 23.1 µM [falling, single point] | 9.2 µM [falling, partial curve] |
| O=C(CNC(=O)c1ccc(Br)o1)NNC(=O)c1n[nH]c(=O)c2ccccc12 | -6.95% |  | 6.51 µM [falling, single point] |
| O=C(O)/C(=C/c1ccco1)c1ccccc1 | -58.1% | 29.1 µM [falling, partial curve, poor fit] | 32.6 µM [falling, partial curve, poor fit] |
| COc1cc(CNCCNC(=O)c2nonc2N)ccc1OCc1ccc(Cl)cc1 | -20.7% | 0.082 µM [falling, full curve, poor fit] |  |
